# Laboratory results: PubChem BioAssay AID493014 (National Center for Advancing Translational Sciences (NCATS), 2011)
# The campaign covered roughly 340,000 compounds. About 170 (0.05%) were called active. The shares of active, inactive and inconclusive entries below differ from those in the screen. Calls follow the shape of the dose curve; as a rule, active = well fitted inhibition curve with a large enough effect in the signal ratio, with a control signal flat (not every such curve was filed as active); inconclusive = small, poorly fitted or top-dose-only effect, or effect the other way, or a change in a side signal; inactive = flat fitted curve, though single readings scatter; the % refers to the signal ratio. Potencies of inconclusive entries are doubtful fits and often do not repeat.
# Test: qHTS Assay to Find Inhibitors of Chronic Active B-Cell Receptor Signaling;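 as to activity change, negative = inhibition: plate controls were basal doxycycline-induced cells for no effect and cells given 10 µM MG132 for full effect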
# Conditions: ABC-DLBCL IkBa-CBG/CBR reporter, luminescence ratio (green luciferase fused to IkBa over red control in TMD8 lymphoma cells), 4 h; activity change, negative = inhibition: at 46.1 µM (top of the series) unless noted
# Outline: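 Concentration-response series (up to 46 uM) were applied to TMD8 dual-reporter cells for 4 h at 37C with doxycycline. Green/red ratio, after filter-overlap correction, defined %Activity; red signal alone was normalised to basal cells and zero luminescence.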
# Potency is read from the fitted curve at half-maximal effect.
Structure (SMILES),"activity change, negative = inhibition",Potency
CC(C(=O)Nc1nc2ccccc2[nH]1)N1C(=O)C2CC=CCC2C1=O (centres undefined),inactive,–
CSc1ccccc1OCc1cc(C(=O)NC2CCc3ccccc32)no1 (centres undefined),inactive,–
O=C(NCCc1ccccc1)C(=O)NCC1CCCN1S(=O)(=O)c1cccs1 (centres undefined),inactive,–
CCOc1ccc(C(C)=O)cc1COC(=O)c1cc([N+](=O)[O-])ccc1N1CCOCC1,inconclusive: -10.9%,–
CC(C)n1cc(CN2CCCC(CO)(Cc3cccc(Cl)c3)C2)cn1 (centres undefined),inconclusive: -4.2%,–
Cc1ccc(S(=O)(=O)NCCC(=O)Nc2cccc(Cl)c2)cc1,inactive,–
COc1ccc(-c2cn3ccccc3n2)cc1OC,–,"inconclusive: 22.4 µM [falling, partial curve]"
CCN(CC(=O)Nc1c(F)cccc1F)C(=O)CCN1C(=O)C2CCCCC2C1=O (centres undefined),inconclusive: 5.24%,–
Cc1ccc(NC(=O)[C@H](C)NC(=O)C2CCN(C(=O)[C@H](CC(C)C)NC(=O)OC(C)(C)C)CC2)cc1,inconclusive: -4.32%,–
O=C(CSc1nc2ccccc2c(=O)n1-c1ccccc1Cl)NC1CCS(=O)(=O)C1 (centres undefined),–,"inconclusive: 32.6 µM [falling, partial curve, poor fit]"
CC1C(=O)N(Cc2ccc([N+](=O)[O-])cc2)c2ccccc2N1C(=O)c1c(F)cccc1F (centres undefined),inactive,–
CC(C)c1cccc(C(C)C)c1NC(=O)CNCC(O)c1ccccc1 (centres undefined),inactive,–
Cc1c(C(=O)Nc2nonc2-c2ccc(F)cc2)oc2ccc(F)cc12,–,"inconclusive: 15.8 µM [falling, partial curve, poor fit]"
C=CCOc1ccc(/C=C2\SC(=S)N(C(C(=O)O)c3ccccc3)C2=O)cc1 (centres undefined),inconclusive: -78.8%,–
O=C1C2CC=C(Cl)CC2C(=O)N1CC1Cc2ccccc2CO1 (centres undefined),inactive,–
Cn1c(=O)c([N+](=O)[O-])c(NCc2ccc3c(c2)OCO3)c2ccccc21,–,"inconclusive: 15.8 µM [falling, partial curve]"
Cc1cc2c(cc1C)C(c1cccc(F)c1)CC(=O)N2 (centres undefined),inactive,–
CSC1=NSC2=NC(=O)/C(=C\c3coc4ccccc4c3=O)C(=N)N12,inconclusive: 1.81%,–
Cc1nc2scc(-c3cccs3)c2c(=O)n1CC(=O)O,inconclusive: 16.9%,–
Cc1ccc(/C=C2\SC(=S)N(CCCC(=O)Nc3ccccn3)C2=O)cc1,–,"inconclusive: 0.708 µM [rising, full curve, poor fit]"
COc1cccc(-c2csc(NC(C)=O)n2)c1,inactive,–
O=C(Nc1ccccc1C(=O)NCc1ccco1)Nc1cccc2ccccc12,–,"inconclusive: 15.8 µM [falling, single point]"
Cn1c2c(c3ccccc31)CCSC2=O,inconclusive: 0.999%,–
Cc1ccc(N2CCN(C3=NC(=O)/C(=C\c4cccs4)S3)CC2)cc1,inconclusive: 10.5%,–
COc1ccc(Cl)cc1NC(=O)CSc1nc(=O)n(CCN(C)C)c2c1CCCC2,inconclusive: 2.56%,–
COc1cc([N+](=O)[O-])cc(/C=N/NC(=O)CSc2nnc(-c3ccccc3)n2C)c1O,inconclusive: 6.61%,–
Cn1c(C(=O)NC2CCCCC2)cc2c(=O)n(C)c3ccccc3c21,inconclusive: 21.9%,–

Structure (SMILES),"activity change, negative = inhibition",Potency
CC1=NOC(=O)/C1=C\c1ccc(-c2ccccc2Br)o1,–,"inconclusive: 35.5 µM [rising, single point]"
COc1ccc(C2(c3ccc(OC(C)=O)cc3OC(C)=O)CC(c3ccccc3)NC(=S)N2)cc1 (centres undefined),inactive,–
CCCN(CCC)C(=O)CSc1nc2ccccc2c(=O)n1Cc1ccco1,inconclusive: 17.3%,–
O=[N+]([O-])c1cc(S(=O)(=O)CCCN2CCOCC2)ccc1F,inconclusive: 9.96%,–
O=C(Nc1ccccc1C(=O)N/N=C/c1ccc(O)cc1)c1ccccc1,inconclusive: 14.1%,–
CCc1ccccc1NC(=O)Nc1cccc(F)c1,inactive,–
Cc1cccc(Nc2nc(N)c(C#N)c(CC#N)c2C#N)c1,–,"inconclusive: 29.1 µM [falling, single point]"
Cc1cc(C)n(CC(O)CN2c3ccccc3Sc3ccccc32)n1 (centres undefined),inconclusive: 9.46%,–
Cc1ccc(F)c(N=Cc2c(O)c3ccccc3oc2=O)c1,–,"inconclusive: 2.82 µM [falling, full curve]"
O=C(NCCN1CCCC1)c1ccc(Cn2c(=S)[nH]c3ccc(Br)cc3c2=O)cc1,–,"inconclusive: 25.1 µM [falling, single point]"
Cc1cnc(C(=O)Nc2ccccc2-n2cccc2)cn1,inactive,–
Cc1ccc(OCc2cc(C(=O)N3CC4C[C@@H]5CC3C[C@H](C4)C5)no2)cc1C,inactive,–
O=C(N/N=C/c1cccnc1)c1cccc(NC(=O)c2cccc(Br)c2)c1,inconclusive: -28.2%,–
COc1cccc(-c2noc(C3CCCN(C(=O)c4cccc(F)c4)C3)n2)c1 (centres undefined),–,"inconclusive: 35.5 µM [falling, single point]"
CCOC(=O)N1CCN(C(=O)c2nn(-c3cc(OC)cc(OC)c3)c(=O)c3ccccc23)CC1,inconclusive: 6.65%,–
CC(=O)Nc1cccc(Oc2ncnc3scc(-c4ccc(C)cc4)c23)c1,–,"inconclusive: 29.1 µM [falling, single point]"
CCN(Cc1cnn(C)c1)C(=O)C1CCC(=O)N(CCc2ccc(OC)cc2)C1 (centres undefined),inconclusive: -11.2%,–
O=C(NC(=S)NNC(=O)c1ccccc1O)c1ccco1,–,"inconclusive: 5.8 µM [falling, single point]"
CSc1nc(-c2ccccc2)nc(N)c1C(C)=O,inconclusive: 14.8%,–
CC(C)C(NC(=O)c1ccco1)C(=O)OCC(=O)Nc1ccc(C(N)=O)cc1 (centres undefined),inconclusive: -0.445%,–
CCC(=O)Nc1c(C)n[nH]c1C,inconclusive: 0.0396%,–
O=C(CSc1nnc(CCCO)n1-c1ccccc1)Nc1nccs1,inactive,–
COc1ccc(N2CCN(S(=O)(=O)c3ccc(C(=O)NCc4ccco4)cc3)CC2)cc1,inactive,–
CSc1nc2ccc(NC(=O)COc3ccccc3F)cc2s1,inconclusive: 4.16%,–
N#Cc1cccc(-c2cn(S(=O)(=O)c3ccc(Cl)cc3)nc2N)c1,inconclusive: -3.66%,–
O=C(CN1C(=O)/C(=C/c2ccccc2Cl)SC1=S)NC1C=CS(=O)(=O)C1 (centres undefined),–,"inconclusive: 35.5 µM [falling, single point]"
COCc1cc(C)nc(SCC(=O)Nc2cccc(C)c2C)c1C#N,inconclusive: 1.3%,–

Structure (SMILES),"activity change, negative = inhibition",Potency
Cc1ccc(C(=O)OCC(=O)N2C(C)CCCC2C)cc1S(=O)(=O)N1CCCCC1 (centres undefined),inactive,–
O=C(Nc1cccc(C(F)(F)F)c1)C1CCCN(S(=O)(=O)c2cnc[nH]2)C1 (centres undefined),–,"inconclusive: 22.4 µM [falling, single point]"
Cn1c(N)c(C(=O)COC(=O)CCOc2ccc(C(C)(C)C)cc2)c(=O)n(C)c1=O,inconclusive: -1.58%,–
COc1cccc(/C=N/NC(=O)c2cnn(-c3ccccc3)c2N)c1,–,"inconclusive: 22.4 µM [falling, partial curve]"
COc1ccccc1/C=N\N=C(\N)c1ccccn1,–,"inconclusive: 4.11 µM [rising, full curve, poor fit]"
CCOc1ccc(C(=O)N/N=C/c2cccc3cccnc23)cc1,–,"inconclusive: 17.8 µM [falling, single point]"
C[C@H](NC(=O)C1(c2ccccc2)CCN(C(=O)[C@H]2CSCN2C(=O)OC(C)(C)C)CC1)C(=O)O,inconclusive: -1.43%,–
COc1cccc(-c2coc3c(C)c4oc(=O)c(CC(=O)O)c(C)c4cc23)c1,inconclusive: 1.01%,–
O=C(CC1OC(=O)c2ccccc21)Nc1cc(Cl)ccc1N1CCCC1 (centres undefined),–,"inconclusive: 20.6 µM [falling, partial curve]"
Cc1onc(-c2c(F)cccc2Cl)c1C(=O)N1CCCc2ccccc21,inactive,–
C=CCn1c(NS(=O)(=O)c2ccccc2)c(S(=O)(=O)c2ccc(C)cc2)c2nc3ccccc3nc21,–,"inconclusive: 4.61 µM [falling, full curve]"
CCC(Sc1ccc(Cl)cc1)C(=O)Nc1nnc(-c2cccc([N+](=O)[O-])c2)s1 (centres undefined),inconclusive: 3.45%,–
N#CNC(=Nc1ccc(F)cc1)SCc1ccccc1,–,"inconclusive: 10.3 µM [falling, partial curve, poor fit]"
O=c1[nH]c(=O)n(Cc2ccc(Oc3ccccc3)cc2)cc1Br,inactive,–
CN(C)/C=C(/C#N)C(=O)c1cccc(Oc2ccc(C(C)(C)C)cc2)c1,inconclusive: -5.88%,–
Cc1ccc(NC(=O)CN2C(=O)NC(Cc3ccccc3)C2=O)c(Br)c1 (centres undefined),inconclusive: 3.92%,–
O=C(NNc1ccccc1F)c1ccccc1,–,"inconclusive: 12.6 µM [falling, single point]"
CCCCn1c(SCC(=O)N2CCCC2)nc2c1c(=O)n(C)c(=O)n2C,inconclusive: 2.53%,–
COc1cccc(CN(C)C(=O)c2cccc(NC(=O)CC3SC(N4CCCCC4)=NC3=O)c2)c1OC (centres undefined),inactive,–
COc1ccccc1NC(=S)NCc1ccc(F)cc1,inactive,–
O=C1CCCC2=C1C1(CCCC1)N=C(Nc1nc3ccccc3s1)N2,inconclusive: -21.1%,–
COC(=O)C1=C(C)N(c2cc(Cl)cc(Cl)c2)C(=O)C1,inconclusive: -12.3%,–
Cc1sc(NC(=O)CSc2nnc(-c3ccccc3)o2)c(C#N)c1C,inconclusive: 6.12%,–
COc1ccc(CCNC(=O)CSc2nnc(-c3ccccc3)c3ccccc23)cc1OC,–,"inconclusive: 2.31 µM [falling, partial curve, poor fit]"
CCOC(=O)C1=C(c2ccc(OC)cc2)OC(N)=C(C#N)C1c1cccnc1 (centres undefined),inactive,–

# Single records (already shown). Values in the order: activity change, negative = inhibition	Potency
# `CCOc1ccc(C(=O)N/N=C/c2cccc3cccnc23)cc1` is listed as –	inconclusive: 17.8 µM [falling, single point]
# `CN(C)/C=C(/C#N)C(=O)c1cccc(Oc2ccc(C(C)(C)C)cc2)c1` is listed as inconclusive: -5.88%	–
# `COc1cccc(CN(C)C(=O)c2cccc(NC(=O)CC3SC(N4CCCCC4)=NC3=O)c2)c1OC` (centres undefined) is listed as inactive	–
